Results of single-concentration screens

Chains of the proteins cited; added tags and fusions are not shown. Residues count along the entry.
UniProt Q8IDJ8, 1-583: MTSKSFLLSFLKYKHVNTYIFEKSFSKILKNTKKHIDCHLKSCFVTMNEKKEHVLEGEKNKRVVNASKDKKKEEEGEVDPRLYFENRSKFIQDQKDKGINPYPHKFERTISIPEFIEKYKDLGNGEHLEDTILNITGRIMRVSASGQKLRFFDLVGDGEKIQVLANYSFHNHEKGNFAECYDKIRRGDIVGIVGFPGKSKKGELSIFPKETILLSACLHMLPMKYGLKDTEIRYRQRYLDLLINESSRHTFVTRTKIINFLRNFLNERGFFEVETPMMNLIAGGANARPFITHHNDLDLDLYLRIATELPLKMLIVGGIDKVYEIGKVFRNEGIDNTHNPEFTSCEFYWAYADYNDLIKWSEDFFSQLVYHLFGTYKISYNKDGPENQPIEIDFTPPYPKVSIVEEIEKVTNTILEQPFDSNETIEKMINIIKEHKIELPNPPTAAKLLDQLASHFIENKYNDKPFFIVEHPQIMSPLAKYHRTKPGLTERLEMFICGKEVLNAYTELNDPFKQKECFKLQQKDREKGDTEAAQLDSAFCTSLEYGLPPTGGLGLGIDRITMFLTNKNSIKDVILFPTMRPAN
UniProt P9WFT3, whole entry: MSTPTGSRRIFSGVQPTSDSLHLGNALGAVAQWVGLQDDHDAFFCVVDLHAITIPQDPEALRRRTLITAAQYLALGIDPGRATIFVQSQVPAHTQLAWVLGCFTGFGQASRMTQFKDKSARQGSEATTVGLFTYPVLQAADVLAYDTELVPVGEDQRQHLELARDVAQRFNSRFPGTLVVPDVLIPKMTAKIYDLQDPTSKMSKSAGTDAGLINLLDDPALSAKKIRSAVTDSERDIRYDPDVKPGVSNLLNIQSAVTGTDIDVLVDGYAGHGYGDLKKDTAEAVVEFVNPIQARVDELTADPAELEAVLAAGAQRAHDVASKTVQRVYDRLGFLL

Data taken from ChEMBL document CHEMBL3988442, “University of Dundee, Small-Polar-MMV Screening Library” (2021).

PfKRS1: 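Lysine-tRNA ligase, Plasmodium falciparum 3D7 (UniProt Q8IDJ8). Enzyme assay of the cytosolic lysyl-tRNA synthetase in 384-well plates, read by luminescence. Concentration: 30 µM. Direction is inferred from only a few compounds that gave an IC50; most scored high, so higher reads as stronger inhibition. Size under these conditions: about 69,000 compounds, about 49 of them at 50% or above in at least one test.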
MtTrpRS: 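Tryptophan-tRNA ligase, Mycobacterium tuberculosis (UniProt P9WFT3). Enzyme assay of tryptophanyl-tRNA synthetase; the read-out is not stated. Compounds at 10 µM. Direction is not recorded; retested compounds ran higher, which suggests that high means inhibition. About 65,000 compounds were tested under these conditions; 0.098% (about 64) showed 50% or more at least once.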
Leishmania in macrophages: 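Cell assay of Leishmania donovani living inside macrophages; the read-out is not stated. Compounds at 30 µM. Higher reads as stronger inhibition (inferred: compounds with an IC50 in retests scored well above the rest). Size under these conditions: about 69,000 compounds, about 1,000 of them at 50% or above in at least one test.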

Each number is a percent effect as filed. How 0% and 100% were set is not recorded. Most values in the screen are low, and negative values occur. This is an unselected part of the compounds tested. Two or more numbers in one place are separate tests of the same structure; such repeats can differ widely. A dash means the value is not listed here; it may have been measured.

compound | PfKRS1 | MtTrpRS | Leishmania in macrophages
Cc1ccc(-c2cn3c(n2)CO[C@@H](CNCc2cnn(C)c2)C3)cc1 | -7.97% | 9.788% | 8.901%
CCN(Cc1ccco1)C(=O)NCc1nnc2n1CCC2 | 0.3238% | -0.2322% | 33.05%
COc1cccc2c(=O)n(C3CCCNC3)cnc12 (stereo not shown) | -1.628% | -0.9518% | 16.85%
Nc1ccnc(N2CCCC(CO)(Cc3cccc(Cl)c3)C2)n1 (stereo not shown) | 5.146% | 4.713% | 9.797%
O=C(c1ccc[nH]1)N1CCN(Cc2ccncc2)c2ncccc2C1 | -2.17% | -9.663% | 8.147%
[H][C@@]12CN(Cc3cccnc3)CCO[C@]1([H])CN(C(=O)c1c(C)noc1C)C2 | - | - | 6.802%
COC(=O)N1CCc2ccccc2C1C(=O)NCc1nc(C)no1 (stereo not shown) | 0.8262% | -0.3799% | 21.91% & -0.7806%
COc1ccc(C[C@H]2CN(c3nnc(C)s3)CC[C@H]2OC)cc1.O=C(O)C(F)(F)F | - | - | 18.31%
COc1ncccc1CN1CCn2c(Cn3cncn3)cnc2C1 | -8.401% | 8.458% | -28.63%
COC(=O)C(CNC(=O)Nc1nncs1)Cc1ccc(F)cc1 (stereo not shown) | 3.971% | -3.772% | 0.3023%
CN(C)CCN(Cc1ccc(C(F)(F)F)cc1)C(=O)c1cc[nH]n1 | 2.265% | -1.323% | 36.02%
COCCn1ccnc1CN1CCc2[nH]cnc2C1c1cnn(C)c1C (stereo not shown) | 9.034% | 2.572% | 19.74%
Cc1ccc(CNC2CC3(CCN(CCO)CC3)c3ccccc32)s1 (stereo not shown) | 1.178% | - | -
O=C(O)C(F)(F)F.[H][C@@]12COC[C@]1(CN(C)C)CN(C(=O)CCc1ccccc1)C2 | - | - | 11.06%
O=C(CC1CC1)N[C@@H]1CN(C(=O)c2ccsc2)C[C@@H]2CCCO[C@@H]21 | 3.405% | - | -
CCNc1ccnc(NC2CCN(S(C)(=O)=O)CC2)n1 | 4.912% | 1.818% | 22.6%
CC(C)CN1CC2(CCN(C(=O)C3CNC(=O)N3)CC2)CC1=O (stereo not shown) | 1.945% | 4.743% | 17.5%
C1CC(CN2C[C@H]3CC[C@@H]2CN(Cc2noc(C4CCCC4)n2)C3)C1 | 3.62% | 3.997% | -
O=S(=O)(NCC(O)c1ccc2c(c1)CCO2)c1ccccc1F (stereo not shown) | 1.491% | -1.854% | -22.15%
N#CC(NC(=O)c1cccc2c1OCCO2)c1ccc(F)cc1F (stereo not shown) | 5.455% | -1.183% | -26.47%
CCC(O)CN1CCN(C(=O)Cc2nc(-c3ccco3)oc2C)CC1 (stereo not shown) | 4.393% | -3.011% | -2.202%
O=C(N1CCCC1)N1CCc2c(CNc3ncccn3)cncc2C1 | 8% | -2.278% | -
CN(c1ccc(F)c(F)c1)S(=O)(=O)c1cc(C(=O)O)cs1 | 4.985% | 0.3912% | -5.709%
N#Cc1ccc(CNC(=O)C2=NN(c3ccccc3)C(=O)CN2)cc1 | 5.039% | -5.365% | 17.15%
c1c2c(nn1CC1CC1)C(CNC1CCOCC1)OCC2 (stereo not shown) | 5.543% | -5.489% | -
O=C1O[C@@H]2CN(Cc3cc4ccccc4o3)C[C@@H]2N1Cc1ccccn1 | 3.314% | -2.611% | -
Cc1ccc(CN(CCCn2ccnc2)Cc2c(F)cccc2F)s1.O=C(O)CC(O)(CC(=O)O)C(=O)O | - | - | 106.3% & 92.67%
CC(=O)N1CCN(c2ccc3ccc(C(=O)NC4CCCC4)cn23)CC1 | -2.831% | 1.756% | 39.49%
COc1cc(NC(=O)c2ccc(F)cc2Cl)c(C(=O)N(C)C)cc1OC | 7.205% | 0.2172% | 10.14%
CN(C)C(=O)CN1CCC2(COCc3cnc(-c4cccnc4)nc32)C1 (stereo not shown) | 1.832% | - | -
Cc1nc(O)cc(CN2CCC=C(CN(C)C(=O)c3ccco3)C2)n1 | 1.914% | 3.827% | 13%
COc1ccc(C2Nc3cc(Cl)ccc3C3=NCCN32)cc1O (stereo not shown) | 1.62% | - | 8.203%
COCC(=O)N1CCC2(CC1)COCCN2CCN(C)C | -5.244% | 1.574% | -
O=S(=O)(CCCNCCn1cccn1)c1ccccc1 | -0.859% | 1.224% | -43.04%
O=C(CCN1CCC(c2cc3ccccc3[nH]2)CC1)N1CCOCC1 | 2.128% | -5.61% | -5.412%
N#Cc1ccc(-c2nnc(CSCCN3CCOCC3)o2)cc1 | 6.855% | 0.5452% | 20.46%
Cc1cccc(C(=O)N2CCC(C(=O)c3cc(F)ccc3F)CC2)n1 | 1.124% | 0.5016% | 20.19%
Cc1cc(N2CCCC2)nc(N(C)CCO)c1C#N | 5.778% | 3.079% | -11.27%
CCCn1ccnc1CN1CCc2[nH]cnc2C1Cc1ccccc1 (stereo not shown) | 0.69% | -1.451% | 46.45%
COc1ccc2c(c1)OC1(CCN(Cc3ccc(C)cc3)CC1)CC2=O | 1.239% | - | 16.15%
Cc1cc2ncc(CN(C)C)c(C3CCN(C)CC3)n2n1 | -1.723% | 8.594% | -34.47%
CC(C)CN(Cc1cnn(C)c1)C(=O)C1COc2ccccc2C1 (stereo not shown) | 0.4698% | -1.107% | 26.9%
CCC(C)NS(=O)(=O)c1ccc(/C=C\c2onc(C)c2NC(C)=O)cc1 (stereo not shown) | 1.599% | -4.58% | 9.508%
COCCN1CCC2(CC1)CC(NCc1ccc(C)s1)c1ccccc12 (stereo not shown) | 3.534% | - | -

Some entries from above, unchanged:

Result for CN(C)CCN(Cc1ccc(C(F)(F)F)cc1)C(=O)c1cc[nH]n1 was PfKRS1: 2.265%; MtTrpRS: -1.323%; Leishmania in macrophages: 36.02%.
Result for Cc1cc(N2CCCC2)nc(N(C)CCO)c1C#N was PfKRS1: 5.778%; MtTrpRS: 3.079%; Leishmania in macrophages: -11.27%.
Result for COc1cccc2c(=O)n(C3CCCNC3)cnc12 (stereo not shown) was PfKRS1: -1.628%; MtTrpRS: -0.9518%; Leishmania in macrophages: 16.85%.
Result for Cc1ccc(-c2cn3c(n2)CO[C@@H](CNCc2cnn(C)c2)C3)cc1 was PfKRS1: -7.97%; MtTrpRS: 9.788%; Leishmania in macrophages: 8.901%.